The supplement of paper PMC4604168 (melanoma cell lines)
The other results are listed elsewhere or left out. Many values rest on one well or one pass, so single values are uncertain.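 The apoptosis fraction was the count of cleaved-PARP antibody-stained nuclei relative to all DNA-stained nuclei, imaged in 1,536-well plates. Screening doses were set so most cells survived, and baseline and induced cleaved-PARP levels vary greatly across cell lines.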

Assays:
Experiment in all cases: cleaved PARP positive nuclei fraction relative to DMSO control; melanoma cells; higher = more apoptosis
Settings in all cases: library dose: low library concentration; 72 h
MZ2-MEL = system: MZ2-MEL
MeWo = system: MeWo
RPMI7951 = system: RPMI7951
RVH-421 = system: RVH-421
SkMel28 = system: SkMel28
SkMel30 = system: SkMel30
SkMel5 = system: SkMel5
UACC257 = system: UACC257
UACC62 = system: UACC62
WM115 = system: WM115
WM1716 = system: WM1716
WM1745 = system: WM1745
WM3526 = system: WM3526
WM3619 = system: WM3619
WM451Lu = system: WM451Lu

| SMILES | cleaved PARP positive nuclei fraction (MZ2-MEL) [%] | cleaved PARP positive nuclei fraction (MeWo) [%] | cleaved PARP positive nuclei fraction (RPMI7951) [%] | cleaved PARP positive nuclei fraction (RVH-421) [%] | cleaved PARP positive nuclei fraction (SkMel28) [%] | cleaved PARP positive nuclei fraction (SkMel30) [%] | cleaved PARP positive nuclei fraction (SkMel5) [%] | cleaved PARP positive nuclei fraction (UACC257) [%] | cleaved PARP positive nuclei fraction (UACC62) [%] | cleaved PARP positive nuclei fraction (WM115) [%] | cleaved PARP positive nuclei fraction (WM1716) [%] | cleaved PARP positive nuclei fraction (WM1745) [%] | cleaved PARP positive nuclei fraction (WM3526) [%] | cleaved PARP positive nuclei fraction (WM3619) [%] | cleaved PARP positive nuclei fraction (WM451Lu) [%] |
| --- | --- | --- | --- | --- | --- | --- | --- | --- | --- | --- | --- | --- | --- | --- | --- |
| CN(NC(=O)CC(=O)NN(C)C(=S)c1ccccc1)C(=S)c1ccccc1 + O=S(=O)(c1ccccc1)N(CC(F)(F)F)c1ccc(C(O)(C(F)(F)F)C(F)(F)F)cc1 [T0901317] (first compound 0.006 µM, partner dose 1.4 µM) | 116 | 121 | 82.8 | 61.5 | 78.2 | 699 | 136 | 114 | 170 | 92.9 | 219 | 174 | 79.9 | 119 | 53.3 |
| CN(C)S(=O)(=O)c1ccc2c(c1)/C(=C/c1cc3c([nH]1)CCCC3)C(=O)N2 + CCCCCCCCCCCC1=C(O)C(=O)C=C(O)C1=O [Embelin] (first compound 0.4 µM, partner dose 1.2 µM) | 139 | 245 | 185 | 85.6 | 222 | 21.3 | 133 | 218 | 60.5 | 274 | 106 | 105 | 54.9 | 77.3 | 60.1 |
| COc1ccc(-c2ccc3c(N4CCOCC4)nc(N4C[C@@H](C)O[C@@H](C)C4)nc3n2)cc1CO + COc1cc2ncnc(Nc3ccc(Oc4ccccc4)cc3)c2cc1OC [SrcI1] (first compound 0.02 µM, partner dose 2 µM) | 62.6 | 33.3 | 216 | 171 | 132 | 30.5 | 82.4 | 55.8 | 69.8 | 141 | 65.7 | 116 | 107 | 115 | 112 |
| O=C(O)c1ccc(-c2c[nH]c3ncc(-c4ccccc4)cc23)cc1C1CCCC1 + O=C(O)C(=O)Nc1sc2c(c1C(=O)O)CCNC2 [TCS401] (first compound 0.16 µM, partner dose 1.66667 µM) | 72.4 | 138 | 164 | 141 | 106 | 24.5 | 29.6 | 256 | 86.5 | 94.1 | 66.3 | 105 | 143 | 94 | 84.4 |
| CCc1ccc(CCOc2ccc(CC3SC(=O)NC3=O)cc2)nc1 (stereo not given) [pioglitazone] + CCCCCCCCCCCC1=C(O)C(=O)C=C(O)C1=O [Embelin] (first compound 2 µM, partner dose 1.2 µM) | 96.7 | 37.1 | 142 | 82.8 | 36 | 17 | 116 | 49.3 | 68.2 | 56.2 | 8.33 | 118 | 126 | 74.6 | 70.2 |
| O=C(O)c1ccc(-c2c[nH]c3ncc(-c4ccccc4)cc23)cc1C1CCCC1 + Cn1cc(/C=C2\C(=O)Nc3cccnc32)c2ccccc21 [GW441756] (first compound 0.16 µM, partner dose 0.4 µM) | 91.3 | 128 | 73.8 | 86.2 | 68.9 | 21.1 | 92.9 | 33.4 | 106 | 437 | 928 | 96.2 | 140 | 77.3 | 60.7 |
| O=C(O)c1ccc(-c2c[nH]c3ncc(-c4ccccc4)cc23)cc1C1CCCC1 + O=C(Nc1ccccc1)c1cc([N+](=O)[O-])ccc1Cl [GW9662] (first compound 0.16 µM, partner dose 2 µM) | 144 | 57.7 | 132 | 160 | 171 | 99.6 | 89.2 | 58.3 | 35.7 | 194 | 74.2 | 94.3 | 73.6 | 76.9 | 249 |
| O=C1NC(=O)/C(=C/c2ccc(-c3ccc(F)cc3O)o2)S1 + c1cc(-c2cnn3cc(-c4ccc(OCCN5CCCCC5)cc4)cnc23)ccn1 [Dorsomorphin] (first compound 1 µM, partner dose 0.4 µM) | 81.8 | 53.9 | 37.9 | 34.8 | 116 | 63.6 | 34.5 | 97.3 | 80.6 | 129 | 43.5 | 101 | 80.1 | 94.7 | 56.9 |
| O=S(=O)(c1ccccc1)N(CC(F)(F)F)c1ccc(C(O)(C(F)(F)F)C(F)(F)F)cc1 + CC(C)CCN1c2nc(Nc3cc(F)c(O)c(F)c3)ncc2N(C)C(=O)C1C [BID1870] (first compound 1.4 µM, partner dose 0.2 µM) | 35.5 | 78.9 | 78.4 | 22.3 | 146 | 31.6 | 77.8 | 158 | 40.6 | 176 | 128 | 105 | 83.5 | 98.6 | 61.7 |
| COc1cc2ncnc(Nc3ccc(Oc4ccccc4)cc3)c2cc1OC + c1cc(-c2cnn3cc(-c4ccc(OCCN5CCCCC5)cc4)cnc23)ccn1 [Dorsomorphin] (first compound 2 µM, partner dose 0.4 µM) | 47 | 61.4 | 67.3 | 21.9 | 164 | 210 | 61.1 | 103 | 19.1 | 150 | 122 | 119 | 75.4 | 84.4 | 57 |
| NCC(=O)Nc1ccc(-n2nc(C(F)(F)F)cc2-c2ccc3c(ccc4ccccc43)c2)cc1 + Cn1cc(/C=C2\C(=O)Nc3cccnc32)c2ccccc21 [GW441756] (first compound 1 µM, partner dose 0.4 µM) | 49.1 | 93.7 | 31.7 | 18.1 | 301 | 153 | 78.4 | 231 | 61.7 | 231 | 89.1 | 117 | 349 | 68.9 | 533 |
| O=S(=O)(c1ccccc1)N(CC(F)(F)F)c1ccc(C(O)(C(F)(F)F)C(F)(F)F)cc1 + Cn1cc(/C=C2\C(=O)Nc3cccnc32)c2ccccc21 [GW441756] (first compound 1.4 µM, partner dose 0.4 µM) | 60 | 102 | 36.4 | 69.6 | 173 | 24.9 | 94.8 | 206 | 74.3 | 64.2 | 70.7 | 122 | 103 | 63.4 | 234 |
| COc1cc2c(Oc3ccc4[nH]c(C)cc4c3F)ncnc2cc1OCCCN1CCCC1 [cediranib] + O=C(Nc1ccccc1)c1cc([N+](=O)[O-])ccc1Cl [GW9662] (first compound 0.4 µM, partner dose 2 µM) | 97.6 | 38.6 | 84 | 65.3 | 85.1 | 160 | 109 | 104 | 84.8 | 98 | 67.1 | 109 | 142 | 60.2 | 56.2 |
| COc1ccc(COc2ccc(Cc3cnc(N)nc3N)cc2OC)cc1 + c1cc(-c2cnn3cc(-c4ccc(OCCN5CCCCC5)cc4)cnc23)ccn1 [Dorsomorphin] (first compound 1 µM, partner dose 0.4 µM) | 90.3 | 93.8 | 91.1 | 84.3 | 175 | 28.9 | 67 | 131 | 34.9 | 125 | 50.6 | 132 | 36.6 | 91.7 | 58.5 |
| Oc1nc(-c2ccc(C(F)(F)F)cc2)nc2c1CSCC2 + CCCCCCCCCCCC1=C(O)C(=O)C=C(O)C1=O [Embelin] (first compound 2 µM, partner dose 1.2 µM) | 155 | 47 | 48.3 | 117 | 28.5 | 55.7 | 40.7 | 86 | 35.3 | 68.2 | 108 | 143 | 59.7 | 84.1 | 65 |
| NCC(=O)Nc1ccc(-n2nc(C(F)(F)F)cc2-c2ccc3c(ccc4ccccc43)c2)cc1 + Oc1nc(-c2ccc(C(F)(F)F)cc2)nc2c1CSCC2 [XAV939] (first compound 1 µM, partner dose 2 µM) | 88 | 292 | 92.8 | 55.6 | 279 | 42.1 | 128 | 105 | 626 | 47.2 | 136 | 95.3 | 107 | 100 | 787 |
| c1cc(-c2cnn3cc(-c4ccc(OCCN5CCCCC5)cc4)cnc23)ccn1 [Dorsomorphin] + O=c1cc(-c2cccc3c2Sc2ccccc2S3)oc(N2CCOCC2)c1 [KU55933] (first compound 0.4 µM, partner dose 1 µM) | 84.5 | 28.9 | 113 | 26 | 88.7 | 45.3 | 198 | 141 | 314 | 72.5 | 59.6 | 119 | 64.6 | 78.6 | 108 |
| COc1cc2ncnc(Nc3ccc(Oc4ccccc4)cc3)c2cc1OC + O=c1cc(-c2cccc3c2Sc2ccccc2S3)oc(N2CCOCC2)c1 [KU55933] (first compound 2 µM, partner dose 1 µM) | 127 | 111 | 38.8 | 64.1 | 137 | 35.3 | 110 | 193 | 32.8 | 150 | 51.8 | 124 | 211 | 80.6 | 60.4 |
| COc1cc(N2CCC(N3CCN(C)CC3)CC2)ccc1Nc1ncc(Cl)c(Nc2ccccc2S(=O)(=O)C(C)C)n1 + O=c1cc(-c2cccc3c2Sc2ccccc2S3)oc(N2CCOCC2)c1 [KU55933] (first compound 0.08 µM, partner dose 1 µM) | 59.9 | 72.6 | 50.6 | 81.2 | 168 | 269 | 59.3 | 224 | 162 | 123 | 61.4 | 116 | 55.8 | 95.2 | 117 |

Single records, as listed above. Order of values: cleaved PARP positive nuclei fraction (MZ2-MEL) [%] | cleaved PARP positive nuclei fraction (MeWo) [%] | cleaved PARP positive nuclei fraction (RPMI7951) [%] | cleaved PARP positive nuclei fraction (RVH-421) [%] | cleaved PARP positive nuclei fraction (SkMel28) [%] | cleaved PARP positive nuclei fraction (SkMel30) [%] | cleaved PARP positive nuclei fraction (SkMel5) [%] | cleaved PARP positive nuclei fraction (UACC257) [%] | cleaved PARP positive nuclei fraction (UACC62) [%] | cleaved PARP positive nuclei fraction (WM115) [%] | cleaved PARP positive nuclei fraction (WM1716) [%] | cleaved PARP positive nuclei fraction (WM1745) [%] | cleaved PARP positive nuclei fraction (WM3526) [%] | cleaved PARP positive nuclei fraction (WM3619) [%] | cleaved PARP positive nuclei fraction (WM451Lu) [%]
Oc1nc(-c2ccc(C(F)(F)F)cc2)nc2c1CSCC2 + CCCCCCCCCCCC1=C(O)C(=O)C=C(O)C1=O [Embelin] (first compound 2 µM, partner dose 1.2 µM) as listed: 155 | 47 | 48.3 | 117 | 28.5 | 55.7 | 40.7 | 86 | 35.3 | 68.2 | 108 | 143 | 59.7 | 84.1 | 65
CN(C)S(=O)(=O)c1ccc2c(c1)/C(=C/c1cc3c([nH]1)CCCC3)C(=O)N2 + CCCCCCCCCCCC1=C(O)C(=O)C=C(O)C1=O [Embelin] (first compound 0.4 µM, partner dose 1.2 µM) as listed: 139 | 245 | 185 | 85.6 | 222 | 21.3 | 133 | 218 | 60.5 | 274 | 106 | 105 | 54.9 | 77.3 | 60.1
